Assay results: US9499572B2, “Phosphatidylalkanols and compositions thereof” (Pethmark AB, priority 2013, dated 2016)
Where a name gives a salt, the structure may show the parent alone. At least one compound was matched to its structure with a doubt left.

Experiment: Estimated final concentration of compound of formula I in DMSO-d6 after removal of strong solvent in vacuo (1H-NMR integrals vs internal reference)
Assay type: physicochemical

Compound: CCCCCCCC/C=C\CCCCCCCC(=O)O[C@H](COC(=O)CCCCCCCCCCCCCCC)COP(=O)(O)OCC [PEth-16:0/18:1-NMe3, 1-Palmitoyl-2-oleoyl-3-ethoxyhydroxyphosphinyl-sn-glycerol trimethylammonium salt]
- estimated concentration of compound of formula I in final solution (Composition Example 4, strong solvent CH2Cl2 removed, no additive): 3 mg/mL
- estimated concentration of compound of formula I in final solution (Composition Example 6, strong solvent CH2Cl2 removed, SDS 29 mg/ml): 5 mg/mL
- estimated concentration of compound of formula I in final solution (Composition Example 7, strong solvent CH2Cl2 removed, Na-AOT 19 mg/ml): 4 mg/mL
- estimated concentration of compound of formula I in final solution (Composition Example 8, strong solvent CH2Cl2 removed, Na-AOT 80 mg/ml): 8 mg/mL
- estimated concentration of compound of formula I in final solution (Composition Example 9, strong solvent CH2Cl2 removed, Triton-X 100 8 mg/ml): 4 mg/mL
- estimated concentration of compound of formula I in final solution (Composition Example 10, strong solvent CH2Cl2 removed, Triton-X 100 46 mg/ml): 8 mg/mL
- estimated concentration of compound of formula I in final solution (Composition Example 11, strong solvent CH2Cl2 removed, Tween 20 42 mg/ml): 7 mg/mL
